Test results taken from patent publication US4176009A (Ajinomoto Co., Inc., priority 1976, dated 1979).
Non-standard residues stand in square brackets, D forms with d. *: point of attachment. dArg(NO2) = N=C(NCCC[C@@H](N)C(=O)O)N[N+](=O)[O-]; Dnp = O=[N+]([O-])c1ccc(*)c([N+](=O)[O-])c1; Boc = CC(C)(C)OC(=O)*; OBn = c1ccc(CO*)cc1

Test: general procedure: solution-phase peptide synthesis; WSCI / 1-hydroxybenzotriazol

Substance | step yield (late stage modification step) [%] | step yield (coupling step) [%]
Dnp-PPGIAGQ[dR]-OH | 85 | –
Dnp-PQGIAGQ[dArg(NO2)]-OBn | – | 89
PAB-Pro-Gln-Gly-Ile-Ala-Gly-Gln-D-Arg-OH | 80 | –
Dnp-PQGIAG[dArg(NO2)]-OBn | – | 79
Dnp-PAGLAGQ[dArg(NO2)]-OBn | – | 72
Boc-LAGQ[dArg(NO2)]-OBn | – | 70
Dnp-QGIAGQ[dArg(NO2)]-OBn | 73 | –
Dnp-AGIAGQ[dArg(NO2)]-OBn | – | 60
PAB-Pro-Gln-Gly-Ile-Ala-Gly-Gln-D-Arg(NO2)-OBzl | – | 75
Dnp-PLGIAGQ[dArg(NO2)]-OBn | – | 93
Boc-IAGQ[dArg(NO2)]-OBn | – | 86
Dnp-PAGIAGQ[dArg(NO2)]-OBn | – | 83
Dnp-PQGLAGQ[dArg(NO2)]-OBn | – | 89
Boc-QGIAGQ[dArg(NO2)]-OBn | – | 71
Dnp-PPGIAGQ[dArg(NO2)]-OBn | – | 73
Boc-IAG[dArg(NO2)]-OBn | – | 79
Boc-PQGIAGQ[dArg(NO2)]-OBn | – | 69
